# Results published in patent US20250027090.
# For some of these results: Negatives hold for the conditions tested. For some of these results: For at least one entry, the source does not settle the construct or the ends of the probe.
# Assays:
# [1] = test system: thrombin (native human beta-thrombin) (Homo sapiens); assay: ITC; conditions: binding not detected, chirality control, purified native protein, protein details: plasma origin, Haematologic Technologies, single-stranded DNA, mirror-image nucleic acid
# [2] = test system: thrombin (native human beta-thrombin) (Homo sapiens); assay: activity assay; conditions: human plasma coagulation assay, purified native protein, protein details: plasma origin, Haematologic Technologies, single-stranded DNA, mirror-image nucleic acid; for functional effect of the aptamer (fold prothrombin time): L-DNA (all nucleotides), 2.5 uM aptamer
# streptavidin [3] = target: streptavidin (UniProt P22629); assay: ITC; conditions: L-DNA (all nucleotides), binding not detected, purified recombinant protein, protein details: New England Biolabs, single-stranded DNA, mirror-image nucleic acid
# [4] = test system: thrombin (native human beta-thrombin) (Homo sapiens); assay: inhibition of the protein; conditions: purified native protein, protein details: plasma origin, Haematologic Technologies, single-stranded DNA, mirror-image nucleic acid
# streptavidin [5] = target: streptavidin (UniProt P22629); assay: binding assay; conditions: L-DNA (all nucleotides), purified recombinant protein, protein details: New England Biolabs, mirror-image nucleic acid
# [6] = test system: thrombin (native human beta-thrombin) (Homo sapiens); assay: binding assay; conditions: L-DNA (all nucleotides), purified native protein, protein details: plasma origin, Haematologic Technologies, mirror-image nucleic acid
# [7] = test system: thrombin (native bovine alpha-thrombin) (Bos taurus); assay: binding assay; conditions: L-DNA (all nucleotides); fluorescence sensor, no response to 1 uM; purified native protein; protein details: plasma origin, Haematologic Technologies; folded or branched DNA; mirror-image nucleic acid; variant of L-9-1t …
# [8] = L-DNA (all nucleotides), 10 nM thrombin, 100 uM benzoyl-Phe-Val-Arg-AMC, variant of L-9-2 aptamer
sequence,measurement,setting,value
ACGGAACGCGTTTCAAGACTACCGTGTTTGTTCCGT [D-L-9-1t (natural D-DNA version of L-9-1t)],binding result,[1]; variant of L-9-1t aptamer,no binding
same,functional effect of the aptamer,"[2]; served as control for prolonged prothrombin time, variant of L-9-1t aptamer, dose not given here",not active
ACGGAACGCGTTTCAAGACTACCGTGTTTGTTCCGT [L-9-1t aptamer],binding result,streptavidin [3]; variant of L-9-1 aptamer,no binding
same,IC50,"[4]; L-DNA (all nucleotides), no inhibition of enzymatic activity up to 8 uM despite binding, variant of L-9-1 aptamer",> 8000 nM
same,functional effect of the aptamer (fold prothrombin time),[2]; variant of L-9-1 aptamer,4
CAGCTCGGATCCAGTTACGGAACGCGTTTCAAGACTACCGTGTTTGTTCCGT / ACTGGATCCGAGCTG / ACGCGTTCCGT [L-DNA aptamer sensor (L-9-1t based)],binding result,"streptavidin [5]; fluorescence sensor, no response to 1 uM, folded or branched DNA, variant of L-9-1t aptamer",no binding
same,binding result,"[6]; fluorescence sensor, linear response ~125-1000 nM (~250-2000 nM in 10% serum), 37 C, folded or branched DNA, variant of L-9-1t …",binds
same,binding result,[7],no binding
CGGATCCAGTTACGGAACGCGTTTCAAGACTACCGTGTTTGTTCCGTTCATTCAGTAAGCTTCGG [L-9-1 aptamer],IC50,"[4]; L-DNA (all nucleotides), no inhibition of enzymatic activity up to 8 uM despite binding",> 8000 nM
CGGATCCAGTTACGGATGAACTTGTTGAAACCCAACGGGAGAATCGTTCATTCAGTAAGCTTCGG [L-9-2 aptamer],IC50,"[4]; L-DNA (all nucleotides), 10 nM thrombin, 100 uM benzoyl-Phe-Val-Arg-AMC",317 nM
CGGATCCAGTTACGGATGAACTTGTTGAAACCCAACGGGAGCCTCGTTCATTCAGTAAGCTTCGGTGG [L-13 aptamer],IC50,[4]; [8],27 nM
GATGAACTTGTTGAAACCCAACGGGAGAATCGTTCATT [D-L-9-2t (natural D-DNA version of L-9-2t)],binding result,[1]; variant of L-9-2t aptamer,no binding
same,IC50,"[4]; no inhibition up to 8 uM, chirality control, variant of L-9-2t aptamer",> 8000 nM
GATGAACTTGTTGAAACCCAACGGGAGAATCGTTCATT [L-9-2t aptamer],binding result,streptavidin [3]; variant of L-9-2 aptamer,no binding
same,IC50,[4]; [8],479 nM
GATGAACTTGTTGAAACCCAACGGGAGCCTCGTTCATT [Cy5-L-13t aptamer],binding result,"streptavidin [5]; aptamer Western blot, 6-180 ng streptavidin, no clear band, label: 5'-Cy5, single-stranded DNA, variant of L-13t aptamer",no binding
same,binding result,"[6]; aptamer Western blot on nitrocellulose, 500 nM aptamer, detection limit <6 ng, label: 5'-Cy5, single-stranded DNA, variant of L-13t aptamer",binds
GATGAACTTGTTGAAACCCAACGGGAGCCTCGTTCATT [L-13t aptamer],IC50,"[4]; L-DNA (all nucleotides), 10 nM thrombin, 100 uM benzoyl-Phe-Val-Arg-AMC, variant of L-13 aptamer",46 nM
same,functional effect of the aptamer (fold prothrombin time),[2]; variant of L-13 aptamer,2
